According to PMC11040210:

Experiments:
[1] = tested on: BpNAC90 (Betula platyphylla (birch)); test: EMSA; conditions: shift decreased by increasing unlabeled competitor; EMSA: protein and biotin probe incubated 2 h at room temperature, PAGE, chemiluminescent EMSA kit (Beyotime); salt and pH not stated; recombinant protein; protein details: MBP (pMAL-c5x); label: 5' biotin on both strands
[2] = tested on: BpNAC90 S205A (Betula platyphylla (birch)); test: EMSA; conditions: text: can still bind, abstract says decreased binding capability; EMSA: protein and biotin probe incubated 2 h at room temperature, PAGE, chemiluminescent EMSA kit (Beyotime); salt and pH not stated; recombinant protein; label: 5' biotin on both strands

Row | Sequence | binding result [1] | binding result [2]
1 | AACACCAACACCAACACC (double strand) [EMSA-EOMES2 (3x AACACC)] | binds | binds
2 | CACGTGACACGTGACACGTG (double strand) [EMSA-ABRE (3x CACGTG)] | binds | binds
3 | TGTCATGTCATGTCA (double strand) [EMSA-Tgif2 (3x TGTCA)] | binds | binds

The exact form of at least one protein or probe is not confirmed.
